Here are results for one substance from article PMC7170963.

By UniProt entry, the sequences of proteins in these tests, tags left out.
UniProt P19474: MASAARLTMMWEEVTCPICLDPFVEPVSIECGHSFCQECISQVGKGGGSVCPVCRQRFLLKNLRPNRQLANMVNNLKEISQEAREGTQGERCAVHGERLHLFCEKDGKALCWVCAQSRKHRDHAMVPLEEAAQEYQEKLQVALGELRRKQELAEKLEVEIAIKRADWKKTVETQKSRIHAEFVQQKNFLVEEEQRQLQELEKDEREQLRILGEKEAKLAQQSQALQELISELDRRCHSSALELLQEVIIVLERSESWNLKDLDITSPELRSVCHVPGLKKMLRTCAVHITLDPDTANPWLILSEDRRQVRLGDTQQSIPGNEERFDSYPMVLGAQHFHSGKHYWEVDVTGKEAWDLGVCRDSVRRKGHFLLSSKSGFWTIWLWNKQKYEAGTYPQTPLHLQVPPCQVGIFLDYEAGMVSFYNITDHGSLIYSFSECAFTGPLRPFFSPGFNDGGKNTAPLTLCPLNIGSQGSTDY
UniProt P11413: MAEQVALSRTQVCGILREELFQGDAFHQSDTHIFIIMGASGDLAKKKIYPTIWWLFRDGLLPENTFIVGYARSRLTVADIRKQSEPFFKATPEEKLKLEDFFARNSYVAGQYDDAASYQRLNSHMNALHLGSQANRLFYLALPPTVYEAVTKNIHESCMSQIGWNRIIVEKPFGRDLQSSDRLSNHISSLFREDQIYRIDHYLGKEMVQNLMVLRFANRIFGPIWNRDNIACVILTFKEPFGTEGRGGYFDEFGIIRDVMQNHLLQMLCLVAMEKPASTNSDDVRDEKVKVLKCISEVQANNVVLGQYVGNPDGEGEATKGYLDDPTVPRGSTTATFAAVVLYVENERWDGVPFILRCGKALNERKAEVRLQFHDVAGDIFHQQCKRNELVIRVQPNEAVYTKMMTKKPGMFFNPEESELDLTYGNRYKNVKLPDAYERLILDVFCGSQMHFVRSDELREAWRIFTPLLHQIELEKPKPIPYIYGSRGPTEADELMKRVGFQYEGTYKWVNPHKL

Results are given in words; binding and its absence hold for the method and conditions named. Binding seen in cells or lysates may run through a third protein. Some entries that bind do so weakly or less than the wild type.

This assay has as its target TRIM21 (human (endogenous in PC3)) (UniProt P19474). As to the kind of experiment: co-IP; endogenous proteins; PC3 cell lysates reciprocally immunoprecipitated and immunoblotted; Protein A-agarose with antibodies overnight at 4 °C, beads washed with lysis buffer; also after PKI-587 treatment of the cells (interaction not influenced). In general terms: A western blot detects proteins with antibodies after separation by electrophoresis.

“G6PD (from UniProt P11413 1-515) (enzyme; other documents disagree on this pair)”: the binding entry was “binds”.
